Measurements reported in PubChem BioAssay AID1224830 (NIAID, 2016).

- Assay: 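Genes whose knock-down alters the TNF-alpha reporter response to LPS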 (primary screen)
- Cell system: human THP-1 monocytic leukaemia cells, TNF dual-luciferase reporter clone, PMA-differentiated to macrophage-like cells
- Reagents: siRNA pool against human genes, 50 nM
- Time to read-out: LPS for 4 h, given about 3 days after siRNA transfection
- Treatment: bacterial LPS (TLR4 ligand), 10 ng/ml
- Read-out: 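Ratio of firefly to renilla light, scaled to the plate median and expressed as a robust z-score per replicate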
- Reading the numbers: TNF reporter robust z-score: higher = stronger TNF reporter response to LPS
- Hit rule: 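a well is active when its z-score exceeds 2.8 or falls below -1.5; control wells carry no call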
The deposit covers about 18,000 reagents; shown is an unselected part. Over the whole deposit, about 2,900 (16%) got an active call. 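Calls are made per well; low scores hint the gene aids the LPS response, high scores that it dampens it.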 Entries without a mark were called inactive. Repeated entries: four replicate wells of each siRNA pool.

{"target gene": "ENTPD3 (GeneID 956)", "TNF reporter robust z-score": -0.25}
{"target gene": "ENTPD3 (GeneID 956)", "TNF reporter robust z-score": -1.06}
{"target gene": "ENTPD3 (GeneID 956)", "TNF reporter robust z-score": 0.22}
{"target gene": "ENTPD3 (GeneID 956)", "TNF reporter robust z-score": -0.07}
{"target gene": "CLEC12B (GeneID 387837)", "TNF reporter robust z-score": "3.35 (active)"}
{"target gene": "CLEC12B (GeneID 387837)", "TNF reporter robust z-score": "3.83 (active)"}
{"target gene": "CLEC12B (GeneID 387837)", "TNF reporter robust z-score": "5.45 (active)"}
{"target gene": "CLEC12B (GeneID 387837)", "TNF reporter robust z-score": "3 (active)"}
{"target gene": "SLC7A6OS (GeneID 84138)", "TNF reporter robust z-score": 1}
{"target gene": "SLC7A6OS (GeneID 84138)", "TNF reporter robust z-score": -0.03}
{"target gene": "SLC7A6OS (GeneID 84138)", "TNF reporter robust z-score": 2.23}
{"target gene": "SLC7A6OS (GeneID 84138)", "TNF reporter robust z-score": -0.41}
{"target gene": "BIRC5 (GeneID 332)", "TNF reporter robust z-score": -1.23}
{"target gene": "BIRC5 (GeneID 332)", "TNF reporter robust z-score": -1.05}
{"target gene": "BIRC5 (GeneID 332)", "TNF reporter robust z-score": "-1.84 (active)"}
{"target gene": "BIRC5 (GeneID 332)", "TNF reporter robust z-score": -0.77}
{"target gene": "CYTH1 (GeneID 9267)", "TNF reporter robust z-score": -0.6}
{"target gene": "CYTH1 (GeneID 9267)", "TNF reporter robust z-score": -0.86}
{"target gene": "CYTH1 (GeneID 9267)", "TNF reporter robust z-score": -1.18}
{"target gene": "CYTH1 (GeneID 9267)", "TNF reporter robust z-score": -1.08}

Reformatted: results already given.
target gene	TNF reporter robust z-score
SLC7A6OS (GeneID 84138)	1
SLC7A6OS (GeneID 84138)	-0.03
